These results are taken from PubChem BioAssay AID493014 (National Center for Advancing Translational Sciences (NCATS), 2011).

The assay is described as follows: qHTS Assay to Find Inhibitors of Chronic Active B-Cell Receptor Signaling. The following applies: ABC-DLBCL IkBa-CBG/CBR reporter, luminescence ratio (green luciferase fused to IkBa over red control in TMD8 lymphoma cells), 4 h. The method, boiled down:
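Compounds up to 46 uM were incubated four hours with TMD8 cells whose green CBG68 luciferase is fused to IkappaBalpha; red CBR luminescence normalised the signal, and concentration-effect curves were fitted to fusion, red and ratio data.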

The mark [1] stands for this setting: measured here: CBR red luminescence, cell number.
Where [2] appears, read: measured here: IkBa-CBG green luminescence.

SMILES strings stand for the structures. Some of the results follow. Shown are side measurements of this screen, not its main read-out; they come without a call. Most of these compounds were active or inconclusive in the main read-out, so they are no random draw. Words in brackets tell the shape of the fitted curve; partial curves, single points and poor fits give uncertain potencies.

For `O=c1[nH]c(/C=C\c2ccc(O)c(Cl)c2)nc(O)c1[N+](=O)[O-]`, the AC50 under setting [1] is 5.62 µM [falling, full curve, poor fit].

As to `CCCN(CC(=O)Nc1cccc(S(N)(=O)=O)c1)CC(=O)Nc1ccc(F)c(F)c1F`, the concentration at half-maximal activity (AC50) under setting [1] was 6.31 µM [rising, single point].

Take `Cc1noc(C)c1S(=O)(=O)NCCc1csc2nc(-c3ccc(Cl)cc3)nn12`: the AC50 under setting [1] was 25.1 µM [falling, single point].

Consider `NSc1nc(N)c2nc(-c3ccccc3)c(-c3ccccc3)nc2n1`, for which the AC50 under setting [1] is 11.2 µM [falling, partial curve, poor fit].

For `CCN(CC)c1ccc(NC(=S)NC(=O)C2CCC2)cc1`, the AC50 under setting [1] is 35.5 µM [rising, single point].

`CCn1c(SCC(=O)N2CCCC(C)C2)nnc1-c1ccco1` (stereo not drawn): the AC50 under setting [1] was 1.12 µM [rising, full curve].

For the compound `COc1cccc(C(=O)NCC(=O)OCC(=O)C(C)(C)C)c1`, under setting [1], the AC50 was 5.17 µM [rising, partial curve].

`Cc1ccc(-c2nnc(Nc3ccccc3)o2)cc1`: the AC50 under setting [1] was 1 µM [falling, full curve].

Regarding `Cc1ccc(-c2cc(C(=O)NC3=NCCS3)c3cc(Br)ccc3n2)o1`, the AC50 under setting [1] was 10.3 µM [falling, partial curve].

In the case of `O=C(Cc1ccc(Br)c2ccccc12)N/N=C/c1ccccn1`, the AC50 under setting [1] is 35.5 µM [rising, single point] and the AC50 under setting [2] was 11.2 µM [falling, partial curve, poor fit].

For `CCOCc1nnc(NC(=O)c2ccc(NC(C)=O)cc2)s1`, the AC50 under setting [1] was 11.2 µM [falling, partial curve, poor fit].

Consider `COC(=O)c1sccc1NC(=O)Nc1ccc(Cl)c(Cl)c1`, for which the AC50 under setting [1] is 7.31 µM [falling, partial curve].

Regarding `CCCn1c(=O)c2c(nc3n2CC(C)CN3Cc2ccccc2)n(C)c1=O` (stereo not drawn), the AC50 under setting [1] is 4.47 µM [falling, partial curve, poor fit].

Turning to `Cc1ccccc1N(Cc1cc(=O)[nH]c2ccccc12)C(=O)CCl`, the AC50 under setting [1] was 14.1 µM [falling, partial curve].

`CCOC(=O)c1cc2cc(-c3c(C(=O)OCC)oc4cc(O)cc(O)c4c3=O)ccc2o1`: the AC50 under setting [1] is 35.5 µM [falling, single point].

In the case of `Cc1cccc(NC(=O)Cc2noc3ccccc23)c1`, the AC50 under setting [1] was 23.1 µM [falling, single point].

As to `O=C(COc1ccccc1[N+](=O)[O-])N(C1CCCCC1)C1CCS(=O)(=O)C1` (stereo not drawn), the AC50 under setting [1] is 8.2 µM [falling, partial curve].

Take `CC(Oc1ccccc1)C(=O)NNC(=O)c1ccccn1` (stereo not drawn): the AC50 under setting [1] is 16.4 µM [rising, single point].

For `CC(C)c1ccc(CNC(=O)CSCC(=O)Nc2ccc3ccccc3c2)cc1`, the AC50 under setting [1] is 22.4 µM [falling, single point].

Regarding `CCOC(=O)CC(=O)CSc1nc2c(C)c(C)ccc2cc1C`, under setting [1], the AC50 is 32.6 µM [rising, single point].

Take `COc1ccc(/C=C2/SC(=O)N(CCCCCC(=O)Nc3ccccc3C(=O)O)C2=S)cc1`: under setting [1], the AC50 was 0.355 µM [falling, full curve].

For the compound `CCC1Oc2ccc(C)cc2N(CC(=O)N(Cc2ccc(C)o2)C2CCCC2)C1=O` (stereo not drawn), the AC50 under setting [1] was 23.1 µM [falling, single point].

`Cc1ccc(CC(=O)Nc2nccs2)cc1C`: under setting [1], the AC50 is 3.16 µM [falling, full curve, poor fit].

As for `O=c1[nH]c2c(cnn2-c2ccc(Cl)cc2)c(=O)n1-c1cccc(Cl)c1`, the AC50 under setting [1] was 0.282 µM [falling, full curve, poor fit].

With `Cc1[nH]c2ccccc2c1C(=O)C(=O)N1CC=C(c2ccccc2)CC1`, under setting [1], the AC50 was 29.1 µM [falling, single point].

`CC(C)(C)OC(=O)N1CCC[C@H]1C(=O)N/N=C/c1ccc2nccnc2c1`: the AC50 under setting [1] was 7.94 µM [falling, partial curve, poor fit].

As for `O=C(/C=C/c1ccc(O)cc1)c1ccccc1`, the AC50 runs as follows: under setting [1], 25.1 µM [falling, single point]; under setting [2], 11.2 µM [rising, partial curve, poor fit].

For the compound `COc1ccccc1NC(=O)c1ccccc1C(=O)O`, the AC50 under setting [1] is 35.5 µM [falling, single point].

On to `O=C(CCC1CCN(C(=O)c2cccc(Cl)c2F)CC1)Nc1ccccc1`, for which, under setting [1], the AC50 is 4.47 µM [falling, partial curve, poor fit].

Take `CC1(C)NC(=O)N(CCCOc2ccccc2Br)C1=O`: the AC50 under setting [1] was 23.1 µM [rising, single point].

Take `COc1ccc(N/C=C(\C#N)c2nc3ccccc3n2C)c(OC)c1`: the AC50 under setting [1] is 0.708 µM [rising, full curve, poor fit].

As for `CCc1ccccc1NC(=O)c1ccccc1N1C(=O)C2C3C=CC(C3)C2C1=O` (stereo not drawn), the AC50 under setting [1] is 1.58 µM [falling, partial curve, poor fit].

For `Nc1ccc2nc(-c3ccccn3)[nH]c2c1`, the AC50 under setting [1] was 13 µM [falling, partial curve, poor fit].

`COc1ccc(-c2cnc3c(-c4ccc(F)cc4)cnn3c2N)cc1`: the AC50 under setting [1] was 4.47 µM [rising, full curve, poor fit].

Turning to `COc1ccc(NC2CCCN(C(=O)CSc3ccncc3)C2)cc1` (stereo not drawn), the AC50 under setting [1] was 3.98 µM [falling, partial curve, poor fit].

As to `O=C(CC1C(=O)NCCN1C/C=C/c1ccccc1)NCCCC1CCCC1` (stereo not drawn), the AC50 under setting [1] was 15.8 µM [falling, single point].

Regarding `CCOC(=O)c1sc(N/N=C/c2cc(Br)c(O)c(OC)c2)nc1C`, the AC50 under setting [1] is 35.5 µM [falling, single point].

Consider `N/C(=N\OC(=O)CCCc1ccccc1)c1ccc([N+](=O)[O-])cc1`, for which the AC50 under setting [1] is 2.31 µM [rising, full curve, poor fit].

`COc1ccc(Cl)cc1NC(=O)c1ccc2c(SCC(=O)O)c3c(nc2c1)CCCC3`: the AC50 under setting [1] was 22.4 µM [falling, partial curve, poor fit].

For the compound `COc1cccc2cc(C(=O)OCC(=O)NCc3ccc4c(c3)OCO4)c(=O)oc12`, the AC50 under setting [1] was 35.5 µM [falling, single point].

`COC(=O)CN1C(=O)NC2(CCCc3ccccc32)C1=O` (stereo not drawn): the AC50 under setting [1] was 35.5 µM [rising, single point].

As usually defined, the AC50 is the concentration at which the activity in the assay is half-maximal.
